Binding data for 8 molecules are collected here from article PMC9020716.

Protein sequences, listed by entry. Tags and fused reporters are not part of them.
UniProt G5EGK8: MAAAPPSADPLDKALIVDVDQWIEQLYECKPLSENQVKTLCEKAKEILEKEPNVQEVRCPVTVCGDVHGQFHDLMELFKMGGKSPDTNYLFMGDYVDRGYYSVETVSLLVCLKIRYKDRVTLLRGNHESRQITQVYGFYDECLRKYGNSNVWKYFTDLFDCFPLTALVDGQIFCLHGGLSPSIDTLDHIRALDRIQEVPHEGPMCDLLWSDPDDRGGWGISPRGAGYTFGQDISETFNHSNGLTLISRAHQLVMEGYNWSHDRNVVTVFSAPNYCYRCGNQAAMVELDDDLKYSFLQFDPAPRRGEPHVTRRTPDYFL
UniProt P34475: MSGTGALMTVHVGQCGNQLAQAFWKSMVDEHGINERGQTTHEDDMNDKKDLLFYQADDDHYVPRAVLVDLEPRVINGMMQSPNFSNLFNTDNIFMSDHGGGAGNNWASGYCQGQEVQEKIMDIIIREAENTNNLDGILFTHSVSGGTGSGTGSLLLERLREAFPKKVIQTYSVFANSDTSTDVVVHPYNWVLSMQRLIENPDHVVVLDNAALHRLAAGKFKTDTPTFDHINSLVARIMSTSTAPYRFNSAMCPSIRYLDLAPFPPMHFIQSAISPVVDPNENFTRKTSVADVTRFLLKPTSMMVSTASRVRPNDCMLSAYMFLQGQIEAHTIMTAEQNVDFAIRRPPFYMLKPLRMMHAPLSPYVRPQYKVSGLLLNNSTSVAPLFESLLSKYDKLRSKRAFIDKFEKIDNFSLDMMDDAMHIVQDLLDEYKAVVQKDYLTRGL

No constants are given. Whether binding was seen depends on the method and setting. In cells and extracts the contact can be indirect. These calls come from enrichment with a bait or labelling near it, and not all partners need be listed. For some assays here: A no says only that the protein was not detected with the bait. Tags and fused reporters may be left off the sequences shown.

T1: GFP:TurboID:PLK-1 (C. elegans) (UniProt P34331)
T1 sequence: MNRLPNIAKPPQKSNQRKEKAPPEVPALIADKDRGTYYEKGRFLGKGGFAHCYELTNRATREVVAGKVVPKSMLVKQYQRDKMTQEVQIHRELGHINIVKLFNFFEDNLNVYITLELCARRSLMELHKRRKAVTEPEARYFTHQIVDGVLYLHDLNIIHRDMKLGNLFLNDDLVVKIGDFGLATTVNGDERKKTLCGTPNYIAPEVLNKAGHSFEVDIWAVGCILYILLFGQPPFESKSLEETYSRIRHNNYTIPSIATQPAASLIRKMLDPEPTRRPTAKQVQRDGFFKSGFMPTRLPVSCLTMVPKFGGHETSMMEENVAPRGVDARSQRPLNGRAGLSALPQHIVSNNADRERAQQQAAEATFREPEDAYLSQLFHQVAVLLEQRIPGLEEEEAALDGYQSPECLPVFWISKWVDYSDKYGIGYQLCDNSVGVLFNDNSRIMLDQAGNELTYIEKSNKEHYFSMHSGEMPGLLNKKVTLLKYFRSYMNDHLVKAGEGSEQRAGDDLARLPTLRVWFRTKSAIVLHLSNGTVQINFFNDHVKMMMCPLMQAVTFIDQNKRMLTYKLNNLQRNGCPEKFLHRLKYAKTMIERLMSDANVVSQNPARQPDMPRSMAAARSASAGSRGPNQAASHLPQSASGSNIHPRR

T2: GFP:TurboID:SPD-5 (C. elegans) (UniProt P91349)
T2 sequence: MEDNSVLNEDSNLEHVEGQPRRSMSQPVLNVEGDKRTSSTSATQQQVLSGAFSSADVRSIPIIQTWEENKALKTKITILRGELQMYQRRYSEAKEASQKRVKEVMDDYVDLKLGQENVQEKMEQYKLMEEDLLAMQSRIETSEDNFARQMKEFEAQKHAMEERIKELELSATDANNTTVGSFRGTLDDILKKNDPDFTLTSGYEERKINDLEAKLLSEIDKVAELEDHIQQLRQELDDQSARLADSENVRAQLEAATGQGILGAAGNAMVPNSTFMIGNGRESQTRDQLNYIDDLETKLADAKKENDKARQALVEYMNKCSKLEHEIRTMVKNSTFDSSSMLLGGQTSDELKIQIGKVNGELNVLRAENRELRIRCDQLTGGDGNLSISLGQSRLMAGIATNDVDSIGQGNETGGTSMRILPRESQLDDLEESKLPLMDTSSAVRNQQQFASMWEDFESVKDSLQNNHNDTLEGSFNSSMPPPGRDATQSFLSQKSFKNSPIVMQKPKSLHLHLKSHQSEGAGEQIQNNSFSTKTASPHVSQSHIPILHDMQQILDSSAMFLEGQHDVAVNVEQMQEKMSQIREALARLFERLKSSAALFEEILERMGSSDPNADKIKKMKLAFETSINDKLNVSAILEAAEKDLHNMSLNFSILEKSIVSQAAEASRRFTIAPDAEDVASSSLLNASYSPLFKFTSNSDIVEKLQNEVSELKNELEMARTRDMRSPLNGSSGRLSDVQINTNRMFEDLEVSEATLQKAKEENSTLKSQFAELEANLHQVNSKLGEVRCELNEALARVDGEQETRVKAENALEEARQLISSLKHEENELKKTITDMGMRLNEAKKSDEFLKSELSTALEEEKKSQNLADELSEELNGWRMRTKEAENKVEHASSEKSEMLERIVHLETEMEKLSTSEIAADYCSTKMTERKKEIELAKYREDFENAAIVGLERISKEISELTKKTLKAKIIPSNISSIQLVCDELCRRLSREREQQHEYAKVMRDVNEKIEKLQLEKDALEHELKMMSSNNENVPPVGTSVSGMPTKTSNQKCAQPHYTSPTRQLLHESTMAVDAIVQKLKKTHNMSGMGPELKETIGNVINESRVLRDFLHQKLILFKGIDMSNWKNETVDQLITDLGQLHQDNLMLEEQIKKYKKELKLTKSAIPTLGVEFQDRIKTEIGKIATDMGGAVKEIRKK

B1: CLS-3/CLASP (protein, UniProt Q03609 1-983)
chain: MTSRMQPKSGVYSVSKADFTKIFEDVPKVPITSAVDLRNKFDAVRIILSNSSEDWNKRQTQLKTVRSLVIHGEKVVDRPTMIAHLVQLLGCFELAVKDLRSQVLREAAITCSFIVSKYGIETHSIGEDILVPAMSQVAVSTKIMATSASTLTEFIVEYVQTRQVFTILSSFSTSKDKSQRRQLAALLEIVISKWSDRIKKQIMRQICELIKSAINDADSETRAAGRRAFAKLDEMHSEEADALYLELDHSKQKMLRGGDAASSWASVNSEKGSIPIRSKLSAGSKAHMNISAKFLAQRSASAIDPKATKFAGPSRLVRPTSTKTMARQDTSPAGCKYSNFISMFFKTLLLSAKIPYPNRPGSRTRTSSITSTDSRDTSPTRRNSPLPPETQKARVKYGNGSFFAKLGMPDTTDDDEFLLPIRIRSPLKTPTIEAHDKVSQVLKECCSSSVSEKKEGIKKLLPIVADTSLNPIEIKNIGNCLNRLLSDASNTMVLEIYSIFVRTHSSRLSEWLRLALAKLFARKAAETLPNTKKQIGHTLNVILECFNAHHQLVTVCELMCDPIHLMVPKARVVLLEYLTSLLDEYTEPGASINAKELKTAIRKMLTWASDPRLSILLTPHVEKAICSMFCVNVADFSALISDLDSEQKNWIHQTLQRNGLENGISSNNIATNSGATASRETSNTSFQKESTSFGLPEFGARKGGTGVNLGSLNISNNLALSRLEEQSTSRLMEKVNLNSTVTLPPDTLEKIQNVQDLLQKMRSSENADEQESAISSIYMMICDGGFGVWEQCYAKLLLNLFEILSKSRSENNKKMCLRILGKMCTAQAAKLFDSTEMAVCKVLDAAVNTNDATTALAVEDCLRTLATHLPLSNIINIAKVILNQEPIDDERASLVLKMVTRLFEELPAEELNNIVDDITPTIIKAYQSTSSTVRKTVVYCLVAMVNRVGEQRMTPHFTKLPKAMTNLIQVYVNRAISTSLPRL
B2: RSA-1 (protein, UniProt O02217 1-404)
chain: MPTDEPSKRKSILPTIPTSLMLKKSNEALSDFERTFNDRVMDIFAENRRIDVEEFKKNAECFLNIIRSNKIDLNWGEGGESRYVTITRLMKILKTSPQSIKDLLPHNTVSNFVKITNYNLTIDITLLEELVRTVIHAEESYIKLLPFSENSTEISSYSLQDFVATHFIPIMIEEPENPVYYTAYAVGTIFFLLGARRRDCVYLKDLLASTLLLQLEECIHAENHCLSPPKIDVFTVAQFRTTLSEFRFLDSQRKGLLAPADLKFFRDGIFNEVFTKRIFEISITYEDGRIDFKAFVDFVTALKFRHTTASAKYHFEILDLKDDGLLDEEEIRSISSFQLQNLPDYVPEDNSVNPEVATAELRDMMRLNQNGITLEEFLANRMNSTFAGFLSNSDDYMKYERREQ
B3: SPD-2 (protein, UniProt P91870 1-824)
chain: MEDDAPMNLCNEQFEEIEDSPIDDNDNESFYNADGDVELEEEEVHETPKNFKNGGRFKTNMTNPKVNDLTTIEEKNEDLRSAASSRSASRPASVMSDKSFSSQFEFQSGGENAIEEYTNQVFADENKADLLFPETSKFMNGASPPKDKHHSWEPSIHHYDKQPPPDIQTNSPVFGNLNHRKNKLIPQARAKPGANDNEIVERDNDENVPTTSDKSAFITSPMNSTNHDEKTSTPKRPTNRKIGQYQGPNFDLSSIYVGSPQHQNTSISTGQQMPTSSYSHAHSETMMTNQTINESMVRRVLNGNNKNQDLFAALEEARKRRAAQPSKPDFRINTTRTRVPIKPTSARHSGNVVSSTSNDNTTAASSKDLTTSRKAMETFRQNASMADATNSNTASMTSILSTISTARTDISRSSRNHGGGFSNTSVSTVIPANNGNVSLSHGRDGRDSVSSVRTMSRASSTSTVYAGSTFSGVSKPLRIHAKRVAFGCVAVGETLRVEVEVENISDRQCLVRASTDSTTPVYQILDNKLTMVDPKKSIKFQVSFSPSSVGRYQVIMSIEVPAQNFIHKIPMWGNGGIAKFVPTSPDLQQTINQSEYAMCTSCAKRISFKISNSAGTRDGFAMIKVFDSAMRQLPDGCVAFFPAPGFIVKKKSDKRVDIRIDSSYIDLHDENNFRTSSSLSTASTTSSFQRRILPGAKFFVHVVWGEETMRTRLRLLEVRTGQHQLIDGHDFTSFQFSDEEVLRAVPVGFPAIKPEDRDLFAASYRSFFINFFTSTTEFRAATSRKKKEICSNDDSTLLETTAFRNQTFVNDVTIVPNTRFSNRK
B4: PAA-1 (protein, UniProt Q09543 1-590)
chain: MSVVEEATDDALYPIAVLIDELRNEDVTLRLNSIRKLSTIALALGVERTRNELIQFLTDTIYDEDEVLLVLAEQLGNFTPLVGGPDHVHCLLLPLENLATVEETVVRDKAVESLRKIADKHSSASLEEHFVPMLRRLATGDWFTSRTSACGLFSVVYPRVSPAIKSELKSMFRTLCRDDTPMVRRAAAAKLGEFAKVFEKTAVIEGLHSSLTDLHVDEQDSVRLLTVESAIAFGTLLDKANKKKLIEPILIELFDDKSWRVRYMVAEKLIEIQNVLGEDMDTTHLVNMYTNLLKDPEGEVRCAATQRLQEFALNLPEDKRQNIICNSLLNVAKELVTDGNQLVKSELAGVIMGLAPLIGKEQTVSELLPIYMQLLNDQTPEVRLNIISSLDKVNEVIGAAQLSTSLLPAIVGLAEDGKWRVRLAIVQFMPLLASQLGQEFFDEKLLPLCLNWLTDHVFSIREASTLIMKELTQKFGGQWASTNIVPKMQKLQKDTNYLQRMTCLFCLNTLSEAMTQEQILKEIMPIVKDLVEDDVPNVRFNAAKSLKRIGKNLTPSTLTSEVKPLLEKLGKDSDFDVRYFSEEAKNSLGL

The target in the first test is T1, GFP:TurboID:PLK-1 (C. elegans). Description: proximity labelling; direct TurboID: GFP:TurboID fusion of the bait expressed as a transgene in mixed-stage C. elegans embryos, no supplemental biotin; insoluble (cytoskeletal) fraction resolubilised under denaturing conditions, streptavidin pull-down, LC-MS/MS; three replicates against the GFP:TurboID control; Log2 enrichment >1, p-value <0.05.
Consider “CYK-1 (C. elegans (endogenous in embryos))”, for which the binding entry was “binds”.
For the molecule “RGA-2 (C. elegans (endogenous in embryos))”, the binding result was “binds”.
Turning to B1, the binding entry was “binds”.

The next test deals with T2, GFP:TurboID:SPD-5 (C. elegans). Described as above.
As to “LET-92 (from UniProt G5EGK8 1-318) (enzyme)”, the binding result is listed as “no binding”.
On the same count and under the same terms, for “γ-tubulin (TBG-1 in C. elegans) (from UniProt P34475 1-444)” the value was “no binding”; for B2, “no binding”; for B3, “binds”.
The same measure, in the same setting: for B4 the value was “no binding”.
